Data as given in patent US11395857B2 (PROVINCIAL HEALTH SERVICES AUTHORITY, priority 2018, dated 2022).

Experiment: general procedure: Fmoc solid-phase peptide synthesis; Fmoc-Rink-Amide-MBHA resin; HATU/HOAt/DIEA
Conditions: whole synthesis

Substance: DOTA-Pip-Nle-cyclo[Asp-(N-Me-His)-D-Phe-(N-Me)-Arg-(N-Me-Trp)-(N-Me-Lys)]—NH2
- final purity (method not given): >99%
